Structures are written as SMILES. The list shows a part of the results. Single values are uncertain, as repeats are few or missing.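 Imaging used 1,536-well plates; nuclei positive for cleaved PARP by antibody were divided by total DNA-stained nuclei to yield the apoptosis fraction. Doses for screening kept most cells viable, and cell lines differ markedly in resting and induced cleaved-PARP levels.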

In the assay the test system is COLO800. The experiment in a line: cleaved PARP positive nuclei fraction relative to DMSO control; melanoma cells; higher = more apoptosis. The note with it: library dose: low library concentration; 72 h.
Consider `Cc1cc(Nc2cc(N3CCN(C)CC3)nc(/C=C/c3ccccc3)n2)n[nH]1` + C#Cc1cccc(Nc2ncnc3cc(OCCOC)c(OCCOC)cc23)c1 [erlotinib] (first compound 0.04 µM, partner dose 0.8 µM), for which the “cleaved PARP positive nuclei fraction” value was 149%. The same measure for `Nc1ccn([C@@H]2O[C@H](CO)[C@@H](O)C2(F)F)c(=O)n1` [gemcitabine] + COc1ccc(Cl)c(Nc2nc3ccccc3nc2NS(=O)(=O)c2cccc(NC(=O)C(C)(C)N)c2)c1 [XL147] (first compound 0.0004 µM, partner dose 0.8 µM): 149%. In the case of `Cc1cc(Nc2cc(N3CCN(C)CC3)nc(/C=C/c3ccccc3)n2)n[nH]1` + CNC(=O)c1cc(Oc2ccc(NC(=O)Nc3ccc(Cl)c(C(F)(F)F)c3)cc2)ccn1 [sorafenib] (first compound 0.04 µM, partner dose 0.4 µM), the “cleaved PARP positive nuclei fraction” value came out at 92.2%. The same measure for `O=C(O)c1ccc2c(c1)nc(Nc1cccc(Cl)c1)c1ccncc12` + Nc1nc(F)nc2c1ncn2[C@@H]1O[C@H](CO)[C@@H](O)[C@@H]1O [fludarabine] (first compound 0.4 µM, partner dose 0.2 µM): 86%; for `O=C(O)c1ccc2c(c1)nc(Nc1cccc(Cl)c1)c1ccncc12` + Nc1cccc2c1CN(C1CCC(=O)NC1=O)C2=O [lenalidomide] (first compound 0.4 µM, partner dose 1 µM): 95.1%; for `Nc1ncn([C@H]2C[C@H](O)[C@@H](CO)O2)c(=O)n1` [decitabine] + OCc1c[nH]c2ccccc12 [Indole-3-carbinol] (first compound 0.1 µM, partner dose 0.8 µM): 41.2%.

The record behind these values is the supplement of paper PMC4604168 (melanoma cell lines).
